Laboratory results as given in the supplement of paper PMC3334620.
In all, about 33,000 sequences were measured (“E-score (-0.5 to 0.5)”: median about -0.0059, highest 2% from about 0.26 on). The list shows a part of the results.

What follows are sequences tested against T1, Cin5 (UniProt P40917) (assay: PBM E-score (8-mer binding enrichment) (E-score (-0.5 to 0.5)); higher = stronger / more preferred TF binding). Conditions: protein concentration: 100 nM; construct: GST-full length.
T1 sequence: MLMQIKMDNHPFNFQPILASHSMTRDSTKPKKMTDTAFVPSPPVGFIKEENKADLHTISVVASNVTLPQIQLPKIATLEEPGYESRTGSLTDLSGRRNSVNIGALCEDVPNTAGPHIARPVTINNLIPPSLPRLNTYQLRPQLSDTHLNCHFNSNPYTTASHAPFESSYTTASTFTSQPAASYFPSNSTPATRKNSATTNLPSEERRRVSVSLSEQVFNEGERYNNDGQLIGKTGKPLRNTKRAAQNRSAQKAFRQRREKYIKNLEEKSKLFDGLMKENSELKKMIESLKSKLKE
In short: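 GST-tagged yeast TFs (full-length or DNA-binding domain) were made by PURExpress in vitro transcription/translation and applied at about 100-200 nM to universal all-10-mer Agilent arrays. The arrays were made double-stranded by primer extension, on fresh or once-stripped slides. Bound protein was detected with fluorescent anti-GST, and scans were normalised with masliner. Each ungapped eight-base word, pooled with its reverse complement, received an E-score (modified Wilcoxon-Mann-Whitney statistic) from the Universal PBM Analysis Suite.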
CAAATCTG was tested, and the “PBM E-score” value was -0.0445. For ATCGAGAT, the “PBM E-score” value was 0.223. For GCACTCCC, the “PBM E-score” value was -0.146. In the case of CGCCTTGA, the “PBM E-score” value is reported as -0.133. In the case of TCGGTCAA, the “PBM E-score” value is reported as 0.00289. CGTCGCTA was tested, and the “PBM E-score” value was 0.0608. AAAGACCG was tested, and the “PBM E-score” value was -0.181. GAAACTGA was tested, and the “PBM E-score” value was -0.17. In the case of CCGACCTA, the “PBM E-score” value is reported as 0.0421. For GAGCCTAA, the “PBM E-score” value was -0.052. With GAAGGCGC the “PBM E-score” value was -0.206. With ATAATTCA the “PBM E-score” value was 0.163. CAAGAACC was tested, and the “PBM E-score” value was 0.0689. In the case of TGCCGTAA, the “PBM E-score” value is reported as 0.152. With CGTTAACG the “PBM E-score” value was 0.0398. For CGCAACTA, the “PBM E-score” value was 0.267. For TCTGACAA, the “PBM E-score” value was -0.0063. In the case of CCGTTCCA, the “PBM E-score” value is reported as 0.017. In the case of AGCTATTA, the “PBM E-score” value is reported as 0.0945. With CTTTACGC the “PBM E-score” value was 0.0738. In the case of CAATCCAG, the “PBM E-score” value is reported as 0.137. In the case of CACTATGG, the “PBM E-score” value is reported as -0.15. In the case of AGCGTCAT, the “PBM E-score” value is reported as 0.0262. CAAAGCGG was tested, and the “PBM E-score” value was -0.0272. With ACAGTTAG the “PBM E-score” value was 0.0386. For AGAGTGTG, the “PBM E-score” value was -0.0181. In the case of ACACATAG, the “PBM E-score” value is reported as -0.0306. For GACTCGTA, the “PBM E-score” value was -0.2. For GCTACGTA, the “PBM E-score” value was 0.0228. In the case of ACTTGCAT, the “PBM E-score” value is reported as 0.206. In the case of ACAGCGGG, the “PBM E-score” value is reported as -0.0265. For ATTGCAGC, the “PBM E-score” value was 0.0151. With CCCATACA the “PBM E-score” value was 0.00179. With ACCTAAAC the “PBM E-score” value was 0.0646. With ATGCCTGG the “PBM E-score” value was -0.226. In the case of ATCCTAGC, the “PBM E-score” value is reported as 0.0411. In the case of AGAAACCA, the “PBM E-score” value is reported as 0.123. GGGGAAAA was tested, and the “PBM E-score” value was 0.0564. For GTTCTACA, the “PBM E-score” value was -0.127. For CGGCTGCA, the “PBM E-score” value was -0.224. In the case of CAGAACGA, the “PBM E-score” value is reported as 0.0474. For CATAGGAC, the “PBM E-score” value was -0.216. For AGATCGCC, the “PBM E-score” value was -0.0294. CTTTATTC was tested, and the “PBM E-score” value was 0.0217. For CCCTGGCC, the “PBM E-score” value was -0.348. With ATCGGTTA the “PBM E-score” value was 0.151. With GCCACCGC the “PBM E-score” value was -0.118. For GAAGAAAA, the “PBM E-score” value was 0.014. CCTGCAGG was tested, and the “PBM E-score” value was -0.134. With CAAGATTG the “PBM E-score” value was 0.00182. CATAGTCA was tested, and the “PBM E-score” value was 0.102. For ACCCGTGC, the “PBM E-score” value was -0.257. ATAACTAC was tested, and the “PBM E-score” value was 0.231. With AGAAGAGG the “PBM E-score” value was -0.232. CACCCCTC was tested, and the “PBM E-score” value was -0.0486. For CGAGTCTC, the “PBM E-score” value was -0.29. CGACCTAA was tested, and the “PBM E-score” value was 0.0622. For GTTTATAA, the “PBM E-score” value was 0.136. For CATGGTAC, the “PBM E-score” value was 0.0904. With GGATGGGA the “PBM E-score” value was 0.0309. With AGGTCCTA the “PBM E-score” value was -0.205. GCTTGGTA was tested, and the “PBM E-score” value was 0.0775. With CACTTCTA the “PBM E-score” value was -0.0259. CTGATCAC was tested, and the “PBM E-score” value was -0.0393. AAGAACGA was tested, and the “PBM E-score” value was 0.105. For AAAGGCTG, the “PBM E-score” value was -0.175. For CATCGGGG, the “PBM E-score” value was -0.142. With ACGTCAGG the “PBM E-score” value was -0.0212. For CGCACTTA, the “PBM E-score” value was -0.0374. In the case of TCGGTACA, the “PBM E-score” value is reported as -0.0943. AAAAGCCA was tested, and the “PBM E-score” value was 0.112. TAGTACAA was tested, and the “PBM E-score” value was 0.161. CCCGCAGG was tested, and the “PBM E-score” value was -0.135. With CCCGTGAG the “PBM E-score” value was -0.0808. In the case of TGATCCCA, the “PBM E-score” value is reported as 0.066. GCTTTGAA was tested, and the “PBM E-score” value was -0.102. In the case of ATGTAGTC, the “PBM E-score” value is reported as 0.0648. In the case of GGTAACCA, the “PBM E-score” value is reported as -0.151. CGGAGTAC was tested, and the “PBM E-score” value was -0.0636. For CACTACAG, the “PBM E-score” value was -0.0413. With CAGATGCC the “PBM E-score” value was -0.193. In the case of CCATTCAG, the “PBM E-score” value is reported as 0.103. With CGCGGGCC the “PBM E-score” value was 0.0512. GACGGGGA was tested, and the “PBM E-score” value was -0.131. For CGTGGAAC, the “PBM E-score” value was -0.0687. In the case of ATTGTGGA, the “PBM E-score” value is reported as -0.0238. With ACGTGAAC the “PBM E-score” value was -0.16. GATGTTAA was tested, and the “PBM E-score” value was 0.209. With CTCCGTTA the “PBM E-score” value was -0.0665. With AATCAATC the “PBM E-score” value was 0.245. ACAGATAA was tested, and the “PBM E-score” value was 0.139. AGCGTACC was tested, and the “PBM E-score” value was -0.18. In the case of TCGCCTCA, the “PBM E-score” value is reported as -0.0845. In the case of GTATGCGA, the “PBM E-score” value is reported as 0.113. With CCCGAATC the “PBM E-score” value was -0.0402. TCTCTCCA was tested, and the “PBM E-score” value was -0.0841. For TCCCAGAA, the “PBM E-score” value was -0.129. For ACACTGTA, the “PBM E-score” value was -0.0445. In the case of CCTTACTA, the “PBM E-score” value is reported as 0.0454. ATATTCGA was tested, and the “PBM E-score” value was 0.026. With ATTATTTA the “PBM E-score” value was 0.319. For AAGCGCAG, the “PBM E-score” value was 0.14. With ACGTGTAA the “PBM E-score” value was 0.104. CAAGGACC was tested, and the “PBM E-score” value was -0.071. With AGGCGGGG the “PBM E-score” value was -0.0324. With CATTACCA the “PBM E-score” value was 0.109. In the case of ATCCTCCC, the “PBM E-score” value is reported as -0.103. AAATGCCA was tested, and the “PBM E-score” value was -0.0407. For CCGTGCAC, the “PBM E-score” value was -0.197. For GGCGCGAC, the “PBM E-score” value was 0.00209. With AGAAAGTA the “PBM E-score” value was -0.0086. With CCTCCCCC the “PBM E-score” value was -0.461. CATCGAGG was tested, and the “PBM E-score” value was -0.0889. With AGTGCCCC the “PBM E-score” value was -0.263. With GTGCTCAA the “PBM E-score” value was 0.0685. ACCCACTA was tested, and the “PBM E-score” value was 0.132. For ACGTGAAA, the “PBM E-score” value was 0.134. In the case of CGCCATTC, the “PBM E-score” value is reported as 0.0442. For ATCATGAT, the “PBM E-score” value was 0.098. In the case of TAGGGTAA, the “PBM E-score” value is reported as 0.126. For AAGGCACA, the “PBM E-score” value was -0.0687. With ACGTCAAG the “PBM E-score” value was -0.174. In the case of GGTCATAA, the “PBM E-score” value is reported as 0.0378. For AAACGACC, the “PBM E-score” value was 0.106. With AAACCTCA the “PBM E-score” value was 0.178. In the case of ATTGTGGC, the “PBM E-score” value is reported as 0.105. With CGTCCAGC the “PBM E-score” value was -0.219. For GCATGAGC, the “PBM E-score” value was -0.0691. In the case of ACACAGGA, the “PBM E-score” value is reported as -0.063. With CCGTAGTC the “PBM E-score” value was -0.167. For GAGCTGGC, the “PBM E-score” value was -0.0869. In the case of GAATGAGC, the “PBM E-score” value is reported as 0.0388. With GAGGACGC the “PBM E-score” value was -0.163. In the case of AACCCTAG, the “PBM E-score” value is reported as 0.0154. In the case of TGTCGCAA, the “PBM E-score” value is reported as -0.122. In the case of GTCCGATA, the “PBM E-score” value is reported as -0.112. In the case of CACGGACC, the “PBM E-score” value is reported as -0.0808. In the case of AAAACAGC, the “PBM E-score” value is reported as 0.0951. With CACCCCCC the “PBM E-score” value was -0.498. CCCCGGTA was tested, and the “PBM E-score” value was -0.253. With ACGGAGTC the “PBM E-score” value was -0.026. With AGTATCCG the “PBM E-score” value was 0.0449. With ATATCCGA the “PBM E-score” value was 0.235. With CCCTGGGC the “PBM E-score” value was -0.308. For CAAACTTC, the “PBM E-score” value was 0.165. AGGTACTA was tested, and the “PBM E-score” value was 0.0435. CCCCCCCC was tested, and the “PBM E-score” value was -0.5. With CCGGGGCC the “PBM E-score” value was -0.242. In the case of TCGAGACA, the “PBM E-score” value is reported as -0.0366. ATTCCTGA was tested, and the “PBM E-score” value was -0.023. For AAATGACA, the “PBM E-score” value was 0.175. CGCGGAGA was tested, and the “PBM E-score” value was 0.0927. With CTGCTACA the “PBM E-score” value was 0.0535. CCGTGTCA was tested, and the “PBM E-score” value was -0.205. In the case of TCGACTAA, the “PBM E-score” value is reported as 0.0548. With AAGGATCG the “PBM E-score” value was 0.00025. For CCCACAAG, the “PBM E-score” value was -0.0905. With CAAGGAGC the “PBM E-score” value was -0.0695. For AATTAATG, the “PBM E-score” value was 0.221. With CATGACTA the “PBM E-score” value was -0.0231. In the case of ACCTATCC, the “PBM E-score” value is reported as -0.0511. In the case of CACTTAGC, the “PBM E-score” value is reported as 0.0334. For ACTTGTGG, the “PBM E-score” value was 0.0113. In the case of CCTGTTCA, the “PBM E-score” value is reported as -0.194. AAATTTTC was tested, and the “PBM E-score” value was -0.0143. For ATAATAGC, the “PBM E-score” value was 0.0795. With CAACGCAC the “PBM E-score” value was -0.0234. CTAGTCTC was tested, and the “PBM E-score” value was -0.0846. With TACACGTA the “PBM E-score” value was 0.127. In the case of AATGAGGT, the “PBM E-score” value is reported as 0.103. In the case of CCCTACAC, the “PBM E-score” value is reported as -0.0428. For CGTCATCA, the “PBM E-score” value was 0.241.
